# Tested on: GSK-3
# Experiment: Radioligand saturation binding assay with tritiated ligands in hippocampal membranes
# Set-up: species or system Sprague–Dawley rat
# Settings: tritiated ligand, hippocampus of SD rat brains
# Description: The pharmacology and physicochemical properties of compounds 13a–13e are depicted in Table . To evaluate binding affinities, saturation binding assays using tritiated ligands [^3H]13a, [^3H]13c, [^3H]13d, [^3H]13e (Scheme S1) were performed using the hippocampal tissue of Sprague–Dawley (SD) rat brains. As depicted in Table A, total binding (TB), nonspecific binding (NSB), and specific binding (SB) of the respective tritiated ligands were measured with increasing concentrations of the radioligands. The dissociation constant (Kd) and capacity (B max) of each radioligand were calculated to confirm their binding affinity.
# For membrane preparation, hippocampal tissue from adult rats (Sprague–Dawley) was dissected out, weighed, and frozen in 0.32 M sucrose at −70 °C. On the experiment day, the tissue was thawed, homogenized in 50 mM Tris, 5 mM EDTA (pH 7.4) and then centrifuged at 48 000 xg for 15 min at +4 °C. The pellet was diluted in binding buffer (50 mM Tris, 4 mM MgCl2, 1 mM EDTA pH 7.4) to a final concentration of 2.5 mg w.w./mL. Saturation binding experiments were performed in duplicate, with each tube containing 1 mg w.w. in 0.5 mL binding buffer and 0.1 – 17 nM (11–12 concentrations) of radioligand. Nonspecific binding was measured by adding 10 μM AR-A014418. The assays were incubated for 2–3 h at room temperature and terminated by quick filtration using Whatman GF/B filters pretreated with 0.3% polyethylenimine on a Brandel cell harvester. Radioactivity was measured with a Packard Tri-Carb 2900TR liquid scintillation counter, and data were processed by nonlinear regression analyses using PRISM 4.03.
row,Compound,Bmax [fmol/mg]
1,CC(=O)N1CCN(Cc2ccc(Nc3ncc(F)c(-c4cnc(C)n4C4CCOCC4)n3)cc2)CC1 [13e],83.4
2,Cc1ncc(-c2nc(Nc3ccc(C(=O)N4CCCCC4)c(Cl)c3)ncc2F)n1C1CCOCC1 [13a],64.5
3,Cc1cc(Nc2ncc(F)c(-c3cnc(C)n3C3CCOCC3)n2)ccc1C(=O)N(C)C [13c],68.4
4,COCCN(C)C(=O)c1ccc(Nc2ncc(F)c(-c3cnc(C)n3C3CCOCC3)n2)cc1C [13d],68.0

# — paper PMC12260939, “Radiosynthesis and Evaluation of ^11C‑Labeled Imidazolyl Pyrimidine Derivatives for Positron Emission Tomography Imaging of Glycogen Synthase Kinase‑3” (ACS Pharmacology & Translational Science, 2025)
